The effect of the compound repeats well; differences between the knockouts mostly do not.
What was measured:
Experiment in all cases: relative cell number vs DMSO control (72 h) (% of DMSO); higher = less growth inhibition (more cells)
[1] = tested on: MDA-MB-231
Protocol: (§1)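 QMAP-Seq: a pool of 5 breast cancer cell lines (ZR-75-1, SKBR3, HCC-38, MDA-MB-231, BT-20), each carrying 12 doxycycline-inducible Cas9 sgRNA perturbations (11 knockouts plus non-targeting sgNT), was treated with compounds for 72 h at four 10-fold doses (10 nM-10 uM or 1 nM-1 uM range). Barcodes were amplified and sequenced, and cell number was interpolated from 293T spike-in standard curves. The result is expressed as % of the median of DMSO wells. Two biological replicates.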

[2] = tested on: ZR-75-1
Protocol: as §1

[3] = tested on: SKBR3
Protocol: as §1

C=CC(=O)Nc1cc2c(Nc3ccc(F)c(Cl)c3)ncnc2cc1OCCCN1CCOCC1 [Canertinib]
relative cell number
Conditions | [1] | [2] | [3]
sgRNA knockout: sgATF3, 10 nM | 116 | 127 | 108
sgRNA knockout: sgATF3, 100 nM | 77.5 | 82.6 | 65.6
sgRNA knockout: sgATF3, 1000 nM | 72.3 | 85.5 | 38.8
sgRNA knockout: sgATF3, 10000 nM | 8.78 | 37.5 | 21.9
sgRNA knockout: sgATF4, 10 nM | 65.5 | 66.9 | 98.6
sgRNA knockout: sgATF4, 100 nM | 89 | 99.5 | 83
sgRNA knockout: sgATF4, 1000 nM | 50 | 61.8 | 39.1
sgRNA knockout: sgATF4, 10000 nM | 14.2 | 55 | 20.3
sgRNA knockout: sgATF6, 10 nM | 96.1 | 107 | 98.6
sgRNA knockout: sgATF6, 100 nM | 122 | 74.8 | 86.3
sgRNA knockout: sgATF6, 1000 nM | 100 | 73.4 | 42.7
sgRNA knockout: sgATF6, 10000 nM | 9.05 | 25.5 | 20
sgRNA knockout: sgATG7, 10 nM | 76.4 | 93.1 | 88.8
sgRNA knockout: sgATG7, 100 nM | 86.3 | 85.9 | 55.9
sgRNA knockout: sgATG7, 1000 nM | 67.2 | 67.9 | 45.5
sgRNA knockout: sgATG7, 10000 nM | 11.8 | 30.6 | 23.5
sgRNA knockout: sgERN1, 10 nM | 88.3 | 91.3 | 89
sgRNA knockout: sgERN1, 100 nM | 91.6 | 78.2 | 65.9
sgRNA knockout: sgERN1, 1000 nM | 88.1 | 76.6 | 46.8
sgRNA knockout: sgERN1, 10000 nM | 6.65 | 39.1 | 27.8
sgRNA knockout: sgHSF1, 10 nM | 88.7 | – | 91.4
sgRNA knockout: sgHSF1, 100 nM | 80.3 | – | 77.6
sgRNA knockout: sgHSF1, 1000 nM | 84 | – | 35.8
sgRNA knockout: sgHSF1, 10000 nM | 12.4 | – | 29
sgRNA knockout: sgHSF2, 10 nM | 79.8 | 104 | 77.2
sgRNA knockout: sgHSF2, 100 nM | 87.5 | 81.9 | 63.3
sgRNA knockout: sgHSF2, 1000 nM | 81 | 71.9 | 41.8
sgRNA knockout: sgHSF2, 10000 nM | 15.6 | 37.4 | 25.7
sgRNA knockout: sgKEAP1, 10 nM | 103 | – | 89
sgRNA knockout: sgKEAP1, 100 nM | 75.2 | – | 63
sgRNA knockout: sgKEAP1, 1000 nM | 73.4 | – | 43
sgRNA knockout: sgKEAP1, 10000 nM | 10.4 | – | 21.2
sgRNA knockout: sgNFE2L2, 10 nM | 90.9 | 99.3 | 84.5
sgRNA knockout: sgNFE2L2, 100 nM | 99.3 | 58.8 | 85.5
sgRNA knockout: sgNFE2L2, 1000 nM | 70.3 | 78.2 | 40.4
sgRNA knockout: sgNFE2L2, 10000 nM | 10.8 | 36.6 | 18.8
sgRNA knockout: sgSLC35F2, 10 nM | 76.3 | 51.9 | 89
sgRNA knockout: sgSLC35F2, 100 nM | 94.9 | 24.2 | 68.6
sgRNA knockout: sgSLC35F2, 1000 nM | 78.9 | 50.7 | 39
sgRNA knockout: sgSLC35F2, 10000 nM | 13.3 | 36.3 | 29.3
sgRNA knockout: sgXBP1, 10 nM | 87.4 | 99.5 | 97
sgRNA knockout: sgXBP1, 100 nM | 75.1 | 98.4 | 77
sgRNA knockout: sgXBP1, 1000 nM | 69.7 | 73.3 | 33.8
sgRNA knockout: sgXBP1, 10000 nM | 8.37 | 35.4 | 27.5

Cc1cc(C2CCCCC2)n(O)c(=O)c1 [Ciclopirox]
relative cell number
Conditions | [1] | [2] | [3]
sgRNA knockout: sgATF3, 10 nM | 97.7 | 108 | 120
sgRNA knockout: sgATF3, 100 nM | 110 | 85.3 | 85
sgRNA knockout: sgATF3, 1000 nM | 67.6 | 66 | 72.29
sgRNA knockout: sgATF3, 10000 nM | 11.5 | 22.5 | 19.3
sgRNA knockout: sgATF4, 10 nM | 100 | 108 | 89
sgRNA knockout: sgATF4, 100 nM | 85.5 | 67.1 | 93.3
sgRNA knockout: sgATF4, 1000 nM | 57.2 | 62.6 | 62.73
sgRNA knockout: sgATF4, 10000 nM | 17 | 16.9 | 18.1
sgRNA knockout: sgATF6, 10 nM | 92.9 | 120 | 77.2
sgRNA knockout: sgATF6, 100 nM | 66.7 | 68.9 | 87.6
sgRNA knockout: sgATF6, 1000 nM | 66.4 | 34.2 | 58.4
sgRNA knockout: sgATF6, 10000 nM | 19.5 | 17.5 | 15.5
sgRNA knockout: sgATG7, 10 nM | 105.9 | 104 | 99.6
sgRNA knockout: sgATG7, 100 nM | 98.9 | 89.34 | 90.6
sgRNA knockout: sgATG7, 1000 nM | 51.5 | 43.6 | 68
sgRNA knockout: sgATG7, 10000 nM | 13.9 | 20.7 | 26.7
sgRNA knockout: sgERN1, 10 nM | 85.4 | 97.87 | 113
sgRNA knockout: sgERN1, 100 nM | 96.5 | 83.9 | 82.2
sgRNA knockout: sgERN1, 1000 nM | 69 | 41 | 73.7
sgRNA knockout: sgERN1, 10000 nM | 16.7 | 23.9 | 18.8
sgRNA knockout: sgHSF1, 10 nM | 79.1 | – | 88.8
sgRNA knockout: sgHSF1, 100 nM | 91.4 | – | 82.3
sgRNA knockout: sgHSF1, 1000 nM | 56.3 | – | 73.7
sgRNA knockout: sgHSF1, 10000 nM | 14.4 | – | 19.7
sgRNA knockout: sgHSF2, 10 nM | 110 | 92.8 | 71.9
sgRNA knockout: sgHSF2, 100 nM | 83.7 | 112 | 91.2
sgRNA knockout: sgHSF2, 1000 nM | 70.3 | 50.1 | 66.7
sgRNA knockout: sgHSF2, 10000 nM | 16.1 | 28.2 | 25
sgRNA knockout: sgKEAP1, 10 nM | 89.6 | – | 80.2
sgRNA knockout: sgKEAP1, 100 nM | 122 | – | 102
sgRNA knockout: sgKEAP1, 1000 nM | 56 | – | 51
sgRNA knockout: sgKEAP1, 10000 nM | 15.8 | – | 23.5
sgRNA knockout: sgNFE2L2, 10 nM | 78 | 113 | 96.7
sgRNA knockout: sgNFE2L2, 100 nM | 105 | 118 | 92.7
sgRNA knockout: sgNFE2L2, 1000 nM | 58.4 | 69.3 | 59.7
sgRNA knockout: sgNFE2L2, 10000 nM | 16.3 | 29.1 | 20.4
sgRNA knockout: sgSLC35F2, 10 nM | 94.6 | 96.7 | 89.099
sgRNA knockout: sgSLC35F2, 100 nM | 84.5 | 72.6 | 88.8
sgRNA knockout: sgSLC35F2, 1000 nM | 59.2 | 59.2 | 62.1
sgRNA knockout: sgSLC35F2, 10000 nM | 14.8 | 24.9 | 14.7
sgRNA knockout: sgXBP1, 10 nM | 85.4 | 86.02 | 87.1
sgRNA knockout: sgXBP1, 100 nM | 72.2 | 101 | 83.8
sgRNA knockout: sgXBP1, 1000 nM | 54.4 | 51 | 73.6
sgRNA knockout: sgXBP1, 10000 nM | 13.5 | 27.7 | 20.4

COc1cc(/C=C/C(=O)CC(=O)/C=C/c2ccc(O)c(OC)c2)ccc1O [Curcumin]
relative cell number
Conditions | [1] | [2] | [3]
sgRNA knockout: sgATF3, 10 nM | 127 | 100 | 135
sgRNA knockout: sgATF3, 100 nM | 94.66 | 95.1 | 103
sgRNA knockout: sgATF3, 1000 nM | 101 | 79.8 | 86.5
sgRNA knockout: sgATF3, 10000 nM | 80.8 | 88.58 | 98.8
sgRNA knockout: sgATF4, 10 nM | 107 | 125 | 107
sgRNA knockout: sgATF4, 100 nM | 132 | 124 | 111
sgRNA knockout: sgATF4, 1000 nM | 107.1 | 127 | 95.5
sgRNA knockout: sgATF4, 10000 nM | 84.4 | 121 | 76.4
sgRNA knockout: sgATF6, 10 nM | 102 | 134 | 108
sgRNA knockout: sgATF6, 100 nM | 91.64 | 147 | 108
sgRNA knockout: sgATF6, 1000 nM | 97.2 | 88.9 | 95.9
sgRNA knockout: sgATF6, 10000 nM | 74.4 | 103 | 74.4
sgRNA knockout: sgATG7, 10 nM | 105.7 | 97.9 | 109
sgRNA knockout: sgATG7, 100 nM | 125 | 115 | 96.6
sgRNA knockout: sgATG7, 1000 nM | 88.8 | 123 | 106
sgRNA knockout: sgATG7, 10000 nM | 84.511 | 79.6 | 72.3
sgRNA knockout: sgERN1, 10 nM | 98.49 | 86.4 | 94.2
sgRNA knockout: sgERN1, 100 nM | 110 | 113 | 107.59
sgRNA knockout: sgERN1, 1000 nM | 90.1 | 116 | 119
sgRNA knockout: sgERN1, 10000 nM | 87.3 | 103 | 91.4
sgRNA knockout: sgHSF1, 10 nM | 103.78 | – | 102
sgRNA knockout: sgHSF1, 100 nM | 114 | – | 95
sgRNA knockout: sgHSF1, 1000 nM | 83.6 | – | 102
sgRNA knockout: sgHSF1, 10000 nM | 89.8 | – | 77.3
sgRNA knockout: sgHSF2, 10 nM | 110 | 108 | 114
sgRNA knockout: sgHSF2, 100 nM | 115 | 98.6 | 105
sgRNA knockout: sgHSF2, 1000 nM | 99.3 | 110 | 96.2
sgRNA knockout: sgHSF2, 10000 nM | 85.1 | 76.4 | 74.5
sgRNA knockout: sgKEAP1, 10 nM | 104 | – | 105
sgRNA knockout: sgKEAP1, 100 nM | 110 | – | 115
sgRNA knockout: sgKEAP1, 1000 nM | 112 | – | 95.9
sgRNA knockout: sgKEAP1, 10000 nM | 74.8 | – | 70.5
sgRNA knockout: sgNFE2L2, 10 nM | 94.1 | 90.7 | 99.9
sgRNA knockout: sgNFE2L2, 100 nM | 118 | 90 | 104
sgRNA knockout: sgNFE2L2, 1000 nM | 88.27 | 107 | 99.6
sgRNA knockout: sgNFE2L2, 10000 nM | 94.2 | 75.3 | 88
sgRNA knockout: sgSLC35F2, 10 nM | 123 | 92.2 | 97.8
sgRNA knockout: sgSLC35F2, 100 nM | 113 | 97.6 | 94.5
sgRNA knockout: sgSLC35F2, 1000 nM | 93.9 | 96.1 | 103
sgRNA knockout: sgSLC35F2, 10000 nM | 78.4 | 113 | 81.4
sgRNA knockout: sgXBP1, 10 nM | 84.6 | 87.1 | 126
sgRNA knockout: sgXBP1, 100 nM | 107 | 108 | 118
sgRNA knockout: sgXBP1, 1000 nM | 80 | 106 | 79.7
sgRNA knockout: sgXBP1, 10000 nM | 77.4 | 81 | 87.5
